PubChem BioAssay AID743456 | Peter MacCallum Cancer Centre, 2014
Purpose: 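Identify miRNAs tied to vorinostat resistance or sensitivity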 (primary screen). System: human HCT116-VR colon cancer cells, a vorinostat-resistant HCT116 line. Reagent: miRNA mimic. Time to read-out: about 3 days from transfection to readout; drug present for the last 24 h. Conditions: vorinostat at 2.5 µM final for 24 h. Read-out: 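Cell viability from CellTiter-Fluor signal and caspase activity from luminescence after 24 h vorinostat at 2.5 µM, given as robust z-scores and as ratios to mock-transfected wells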. Scale: viability robust z-score: higher = more viable cells; caspase robust z-score: higher = more caspase activity, more apoptosis. Active means: 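a mimic counts as active if it lands in a lowered-viability class or a caspase-activation class; wells with too few cells without drug are left out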.
The whole screen tested 878 reagents; below is a random part of them. Over the whole deposit, 27 (3.1%) got an active call. 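27 mimics are marked active, unlike an earlier stated count of 24; the viability threshold is described inconsistently.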 Entries without a mark were called inactive. Further read-outs or replicates are left out here. Not stated in the record: the amount of reagent.

miRNA	PubChem SID	viability robust z-score	caspase robust z-score	viability hit class	caspase hit class
hsa-miR-99a*	SID160648348	-0.12	-0.56	no change	no change
hsa-miR-1306	SID160648703	-1.21	3.87	no change	no change
hsa-miR-548k	SID160648635	0.48	-0.9	no change	no change
hsa-let-7e*	SID160648334	-3.35 (active)	1.25	reduced viability	no change
hsa-miR-515-5p	SID160648126	0.62	0.4	no change	no change
hsa-miR-520c-3p	SID160648144	0.94	1.5	no change	no change
hsa-miR-214	SID160647944	-0.26	1.19	no change	no change
hsa-miR-660	SID160648313	0.81	-0.84	no change	no change
hsa-miR-331-5p	SID160648465	0.02	0.51	no change	no change
hsa-miR-512-3p	SID160648123	1.44	3.93	no change	no change
hsa-miR-383	SID160648050	0.03	-0.76	no change	no change
hsa-miR-363	SID160648024	-0.23	-0.98	no change	no change
hsa-miR-556-3p	SID160648418	-1.36	0.12	no change	no change
hsa-miR-483-5p	SID160648414	-0.36	3.25	no change	no change
hsa-miR-1245	SID160648650	0.64	1.14	no change	no change
hsa-miR-19b-1*	SID160648338	-3.25 (active)	0.68	reduced viability	no change
hsa-miR-509-5p	SID160648469	-0.62	3.21	no change	no change
hsa-miR-381	SID160648048	0.72	-0.68	no change	no change
hsa-miR-1303	SID160648644	-0.68	-0.08	no change	no change
hsa-miR-628-3p	SID160648273	0.56	-0.66	no change	no change
hsa-miR-193b*	SID160648407	-0.59	0.4	no change	no change
hsa-miR-1197	SID160648708	1.29	-0.26	no change	no change
hsa-miR-2052	SID160648744	0.52	0.06	no change	no change
hsa-miR-200c*	SID160648385	-0.38	1.82	no change	no change
hsa-miR-548f	SID160648648	1.24	0.1	no change	no change
hsa-miR-181a-2*	SID160648504	-0.26	0.16	no change	no change
hsa-miR-1289	SID160648632	-1.03	-0.07	no change	no change
hsa-miR-200b*	SID160648448	0.71	-0.73	no change	no change
hsa-miR-517c	SID160648162	-0.43	1.21	no change	no change
hsa-miR-921	SID160648555	-0.08	0.2	no change	no change
hsa-miR-452	SID160648091	0.36	0.04	no change	no change
hsa-miR-876-3p	SID160648535	-2.16	0.91	no change	no change
hsa-miR-877	SID160648574	-0.32	-0.04	no change	no change
hsa-miR-421	SID160648314	-2.64	0.97	no change	no change
hsa-miR-371-5p	SID160648392	0.82	0.98	no change	no change
hsa-miR-370	SID160648034	1.3	-0.78	no change	no change
hsa-miR-602	SID160648246	1.4	-0.18	no change	no change
hsa-miR-200a*	SID160648084	0.03	-0.98	no change	no change
hsa-miR-107	SID160647911	0.48	-0.18	no change	no change
hsa-miR-18a	SID160647879	0.38	1.22	no change	no change
hsa-miR-302c*	SID160648028	0.46	-0.36	no change	no change
hsa-miR-592	SID160648237	-0.2	-0.44	no change	no change
hsa-miR-1288	SID160648695	-0.83	2.65	no change	no change
hsa-miR-34a*	SID160648449	-1.34	-0.12	no change	no change
hsa-miR-218-1*	SID160648443	-1.52	1.48	no change	no change
hsa-miR-518c*	SID160648145	-0.56	0.32	no change	no change
hsa-miR-98	SID160647903	0.6	-0.21	no change	no change
hsa-miR-1234	SID160648586	0.44	-0.68	no change	no change
hsa-let-7f-2*	SID160648445	-0.67	0.3	no change	no change
hsa-miR-551a	SID160648193	0.06	-0.8	no change	no change
hsa-miR-19a*	SID160648337	-0.76	0.22	no change	no change
hsa-miR-15a	SID160647875	-2.48	2.31	no change	no change
hsa-miR-33a	SID160647898	0.7	-0.3	no change	no change
hsa-miR-432*	SID160648115	-1.8	2.17	no change	no change
hsa-miR-1909*	SID160648724	-0.83	1.09	no change	no change
hsa-miR-487a	SID160648103	0.45	-0.88	no change	no change
hsa-miR-122	SID160647963	-1.48	0.16	no change	no change
hsa-miR-539	SID160648184	1.3	-0.27	no change	no change
hsa-miR-519c-3p	SID160648131	0.88	2.67	no change	no change
hsa-miR-885-5p	SID160648542	-0.06	-0.3	no change	no change
hsa-miR-125b	SID160647965	0.58	-1.02	no change	no change
hsa-miR-548c-5p	SID160648431	0.84	-0.53	no change	no change
hsa-miR-141	SID160647974	0.55	-0.82	no change	no change

A portion taken from the entries so far, as a working copy:
miRNA	PubChem SID	viability robust z-score	caspase robust z-score	viability hit class	caspase hit class
hsa-miR-592	SID160648237	-0.2	-0.44	no change	no change
hsa-miR-1288	SID160648695	-0.83	2.65	no change	no change
hsa-miR-34a*	SID160648449	-1.34	-0.12	no change	no change
